Measurements taken from patent publication US12624025B2, “Inhibitors of SARM1” (DISARM THERAPEUTICS, INC., priority 2019, dated 2026).
Structures were worked out from names or drawings and are uncertain.

Amino acid sequences for entries named in this document (tags omitted). Residues count along the entry.
UniProt Q6SZW1, 409-724 limits assumed: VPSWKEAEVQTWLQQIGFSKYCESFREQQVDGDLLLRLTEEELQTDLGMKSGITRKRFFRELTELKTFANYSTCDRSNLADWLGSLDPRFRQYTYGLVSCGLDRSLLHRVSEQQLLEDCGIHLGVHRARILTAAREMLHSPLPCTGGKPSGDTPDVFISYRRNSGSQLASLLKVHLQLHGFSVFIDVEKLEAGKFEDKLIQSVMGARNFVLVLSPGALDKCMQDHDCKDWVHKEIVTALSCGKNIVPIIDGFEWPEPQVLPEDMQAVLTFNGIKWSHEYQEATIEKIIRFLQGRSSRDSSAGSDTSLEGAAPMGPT

Target: SARM1 SAM-TIR (Homo sapiens, UniProt Q6SZW1)
Test: SAM-TIR SARM1 IC50 assay (NADase activity, NAD+ cleavage, RapidFire MS readout)
Type: biochemical
Conditions: read-out: SARM1 IC50; SAM-TIR lysate 5 μg/mL, 2 h pre-incubation with compound, 5 μM NAD+, 2 hr room temperature
Procedure: This Example describes an assay of SAM-TIR NADase activity and use of this assay to measure the efficacy of compounds of Formula I to block SARM1 mediated NAD+ cleavage. This assay is optimized in such a way as to characterize the efficacy of the compounds in Formula I to inhibit SARM1 activity and to calculate an IC50 value for each compound. This assay makes use of a fragment of the SARM1 molecule encompassing the SAM and TIR domains.
NRK1-HEK293T cells were seeded onto 150 cm^2 plates at 20×10^6 cells per plate. The next day, the cells were transfected with 15 μg FCIV-SST (SAM-TIR expression plasmid, SEQ ID NO: 1) using X-TREMEGENE™ 9 DNA Transfection Reagent (Roche product #06365787001).
The cultures were supplemented with 1 mM NR at time of transfection to minimize toxicity from SAM-TIR overexpression. […] Protein concentration was determined by the Bicinchoninic (BCA) method and used to normalize lysate concentrations.
The enzymatic assay was performed in a 384-well polypropylene plate in Dulbecco's PBS buffer in a final assay volume of 20 μL. […] The NAD+ and ADPR concentrations were analyzed by a RapidFire High Throughput Mass Spectrometry System (Agilent Technologies, Santa Clara, CA) using an API4000 triple quadrupole mass spectrometer (AB Sciex Framingham, Mass.).

N#Cc1c(Nc2ccccc2C(F)(F)F)sn(C2Cc3ccccc3C2)c1=O
IC50: < 1000 nM

N#Cc1c(Nc2ccccc2C(F)(F)F)sn(-c2ccc3c(c2)OCC3)c1=O
IC50: < 1000 nM
